Source: publication doi:10.1101/2020.11.10.376210
Results are given in words; binding and its absence hold for the method and conditions named. In cells and extracts the contact can be indirect. Binding can be weak; no strength is given. For some assays here: Sequences can lack the tags named with a protein.

Sequences of proteins named here, by UniProt entry; tags and fusion partners are left off. A change or cut given only in a name is not applied to a line headed by its entry.
UniProt Q0KHY3: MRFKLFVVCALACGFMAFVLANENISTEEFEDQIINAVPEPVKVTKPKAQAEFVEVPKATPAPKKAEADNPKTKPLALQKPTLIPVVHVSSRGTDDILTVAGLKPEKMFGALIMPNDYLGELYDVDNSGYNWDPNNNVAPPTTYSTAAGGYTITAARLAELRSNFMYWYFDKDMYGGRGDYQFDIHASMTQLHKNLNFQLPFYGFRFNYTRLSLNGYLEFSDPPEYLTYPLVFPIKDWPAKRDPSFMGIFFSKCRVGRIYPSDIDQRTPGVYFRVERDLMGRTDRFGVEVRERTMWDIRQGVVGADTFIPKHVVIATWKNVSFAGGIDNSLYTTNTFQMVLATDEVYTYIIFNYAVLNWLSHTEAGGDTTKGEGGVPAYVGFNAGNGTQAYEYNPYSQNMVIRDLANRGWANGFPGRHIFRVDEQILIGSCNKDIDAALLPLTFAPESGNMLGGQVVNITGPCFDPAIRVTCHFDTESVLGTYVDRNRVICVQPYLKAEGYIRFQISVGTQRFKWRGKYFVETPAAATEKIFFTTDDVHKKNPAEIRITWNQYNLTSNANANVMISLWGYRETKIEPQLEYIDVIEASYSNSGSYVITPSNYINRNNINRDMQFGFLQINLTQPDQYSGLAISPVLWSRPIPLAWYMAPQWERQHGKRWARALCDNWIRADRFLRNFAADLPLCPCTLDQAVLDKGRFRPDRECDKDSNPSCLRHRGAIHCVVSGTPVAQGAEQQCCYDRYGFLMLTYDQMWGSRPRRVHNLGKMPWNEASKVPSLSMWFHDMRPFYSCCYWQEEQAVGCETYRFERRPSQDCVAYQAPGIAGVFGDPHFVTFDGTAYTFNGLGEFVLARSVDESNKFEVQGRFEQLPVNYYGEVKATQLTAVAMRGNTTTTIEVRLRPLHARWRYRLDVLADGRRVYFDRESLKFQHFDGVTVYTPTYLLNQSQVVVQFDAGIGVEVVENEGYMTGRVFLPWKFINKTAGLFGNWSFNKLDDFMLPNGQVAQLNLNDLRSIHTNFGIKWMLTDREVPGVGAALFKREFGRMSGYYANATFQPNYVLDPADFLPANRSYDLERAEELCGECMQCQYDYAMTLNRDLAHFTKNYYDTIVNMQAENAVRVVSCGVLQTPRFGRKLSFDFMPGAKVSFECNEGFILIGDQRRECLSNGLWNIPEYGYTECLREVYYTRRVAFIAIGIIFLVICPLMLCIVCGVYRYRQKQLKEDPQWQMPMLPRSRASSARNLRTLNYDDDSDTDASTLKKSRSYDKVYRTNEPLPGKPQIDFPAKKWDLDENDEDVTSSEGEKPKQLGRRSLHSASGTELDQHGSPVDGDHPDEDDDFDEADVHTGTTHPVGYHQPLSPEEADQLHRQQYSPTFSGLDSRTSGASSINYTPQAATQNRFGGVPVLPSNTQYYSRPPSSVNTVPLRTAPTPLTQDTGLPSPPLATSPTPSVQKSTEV

T1: Snakeskin (Drosophila (endogenous in embryos)) (UniProt Q9VW87)
T1 sequence: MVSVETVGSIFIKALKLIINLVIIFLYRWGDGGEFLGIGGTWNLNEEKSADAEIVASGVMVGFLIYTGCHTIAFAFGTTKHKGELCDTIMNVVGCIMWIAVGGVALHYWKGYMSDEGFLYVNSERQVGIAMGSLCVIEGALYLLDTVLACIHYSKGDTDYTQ

T2: enhanced GFP (EGFP)-Tsp2A (Drosophila) (UniProt O46101)
T2 sequence: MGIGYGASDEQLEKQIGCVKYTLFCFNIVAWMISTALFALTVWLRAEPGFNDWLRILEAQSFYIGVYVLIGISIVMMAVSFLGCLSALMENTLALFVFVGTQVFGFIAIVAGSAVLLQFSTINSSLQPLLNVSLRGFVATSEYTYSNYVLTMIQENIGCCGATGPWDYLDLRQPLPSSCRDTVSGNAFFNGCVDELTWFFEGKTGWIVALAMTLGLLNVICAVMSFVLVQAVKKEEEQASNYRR


How the values were obtained:
Assay in all cases: co-IP
[1] = molecular target: T1, Snakeskin (Drosophila (endogenous in embryos))
[2] = molecular target: T2, enhanced GFP (EGFP)-Tsp2A (Drosophila)
[3] = molecular target: Mesh (Drosophila (endogenous in embryos)) (UniProt Q0KHY3)
[4] = molecular target: Hoka (Drosophila (endogenous in embryos))

Molecule | binding [1] | binding [2] | binding [3] | binding [4]
Hoka (Drosophila (endogenous in embryos)) | binds | binds | – | –
Mesh (from UniProt Q0KHY3) | binds | – | – | –
Snakeskin (protein, UniProt Q9VW87 1-162) MVSVETVGSIFIKALKLIINLVIIFLYRWGDGGEFLGIGGTWNLNEEKSADAEIVASGVMVGFLIYTGCHTIAFAFGTTKHKGELCDTIMNVVGCIMWIAVGGVALHYWKGYMSDEGFLYVNSERQVGIAMGSLCVIEGALYLLDTVLACIHYSKGDTDYTQ | – | – | binds | binds
